From publication PMC7085222, “TBC1D25 Regulates Cardiac Remodeling Through TAK1 Signaling Pathway” (International Journal of Biological Sciences, 2020)
These are yes or no findings as the source states them, for the method shown. In cells and extracts the contact can be indirect. Some results given as binding are weak or reduced against the parent protein; the word gives no strength. Sequences can lack the tags named with a protein.

Target: T1, Flag-tagged TBC1 Domain Family Member 25 (TBC1D25) (UniProt Q3MII6)
T1 sequence: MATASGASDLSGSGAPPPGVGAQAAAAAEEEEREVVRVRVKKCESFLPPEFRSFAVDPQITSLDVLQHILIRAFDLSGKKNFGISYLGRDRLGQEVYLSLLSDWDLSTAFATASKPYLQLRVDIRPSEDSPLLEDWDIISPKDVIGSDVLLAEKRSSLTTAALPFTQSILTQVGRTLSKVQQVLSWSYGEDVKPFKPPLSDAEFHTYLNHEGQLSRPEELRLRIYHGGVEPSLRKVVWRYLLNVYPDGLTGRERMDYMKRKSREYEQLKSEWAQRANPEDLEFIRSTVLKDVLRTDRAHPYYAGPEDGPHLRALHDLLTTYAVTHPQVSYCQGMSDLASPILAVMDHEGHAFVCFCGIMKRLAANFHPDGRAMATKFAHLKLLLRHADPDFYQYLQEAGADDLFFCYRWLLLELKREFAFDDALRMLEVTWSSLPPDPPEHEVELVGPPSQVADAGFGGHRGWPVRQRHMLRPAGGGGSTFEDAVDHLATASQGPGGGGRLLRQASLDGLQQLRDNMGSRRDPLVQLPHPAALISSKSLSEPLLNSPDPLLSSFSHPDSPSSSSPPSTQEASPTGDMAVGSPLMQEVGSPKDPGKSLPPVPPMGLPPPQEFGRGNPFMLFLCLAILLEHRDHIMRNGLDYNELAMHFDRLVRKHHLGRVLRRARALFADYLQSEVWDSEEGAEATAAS
Test: co-IP; 293T cells co-transfected with Flag-TBC1D25 and HA-TAK1; lysed in IP buffer (20 mM Tris-HCl pH 7.4, 150 mM NaCl, 1 mM EDTA, 1% Triton X-100); anti-Flag M2 or anti-HA magnetic beads, 4 C overnight; immunoblot

- binding: binds
B1: HA-tagged TAK1 (transforming growth factor-beta-activated kinase 1) (enzyme, UniProt O43318-2 1-579)
chain: MSTASAASSSSSSSAGEMIEAPSQVLNFEEIDYKEIEVEEVVGRGAFGVVCKAKWRAKDVAIKQIESESERKAFIVELRQLSRVNHPNIVKLYGACLNPVCLVMEYAEGGSLYNVLHGAEPLPYYTAAHAMSWCLQCSQGVAYLHSMQPKALIHRDLKPPNLLLVAGGTVLKICDFGTACDIQTHMTNNKGSAAWMAPEVFEGSNYSEKCDVFSWGIILWEVITRRKPFDEIGGPAFRIMWAVHNGTRPPLIKNLPKPIESLMTRCWSKDPSQRPSMEEIVKIMTHLMRYFPGADEPLQYPCQYSDEGQSNSATSTGSFMDIASTNTSNKSDTNMEQVPATNDTIKRLESKLLKNQAKQQSESGRLSLGASRGSSVESLPPTSEGKRMSADMSEIEARIAATTGNGQPRRRSIQDLTVTGTEPGQVSSRSSSPSVRMITTSGPTSEKPTRSHPWTPDDSTDTNGSDNSIPMAYLTLDHQLQPLAPCPNSKESMAVFEQHCKMAQEYMKVQTEIALLLQRKQELVAELDQDEKDQQNTSRLVQEHKKLLDENKSLSTYYQQCKKQLEVIRSQQQKRQGTS
